Source: the supplement of paper PMC12889115
The list shows a part of the results. Values are raw readings; no control value is given beside them.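 First-pass screen: polymyxin B was added at a level that permeabilizes the Salmonella outer membrane while sparing the inner membrane. DMSO wells, with and without polymyxin B, defined maximum growth. Because plates differed from one another, each plate's data were ranked separately and the compounds with the lowest OD600 were carried forward as hits.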

System: Salmonella enterica serovar Typhimurium SL1344
Experiment: bacterial growth OD600 after 18 h with compound and polymyxin B; higher = more bacterial growth (less inhibition)
Conditions: 50 µM, Mueller-Hinton broth

Row | Compound | bacterial growth OD600 (polymyxin B 1 µg/mL) | bacterial growth OD600 (polymyxin B 0.75 µg/mL)
1 | CC(CC1CC1)N1CCC(N2CCC(C(=O)NCc3cccnc3)CC2)CC1 (configuration not stated) | 0.834 | 
2 | Cc1c[nH]c(CN(C)C(=O)c2cc(Cn3c(C)nc4ccccc43)on2)n1 | 1.05 | 
3 | CCC1CN(Cc2c(OC)cccc2OC)Cc2cc(OC)ccc2O1 (configuration not stated) |  | 0.789
4 | CSc1cccc(CN2CCC(n3nccc3NC(=O)C3CC3)CC2)c1 | 0.909 | 
5 | C=CCC(O)(CC=C)CNC1CCN(c2ccc(CC(=O)NCc3ccccc3)cc2)CC1 |  | 0.834
6 | Cc1cc(CNCC2(O)CCCN(Cc3ccc(F)c(F)c3)C2=O)no1 (configuration not stated) | 1 | 
7 | Cc1ccccc1C(CC(=O)NCc1ccccn1)c1ccccc1 (configuration not stated) | 0.743 | 
8 | COc1ccc(-c2ccc3c(c2)CC(CNC(=O)c2cccc(-n4nc(C)cc4C)c2)O3)nn1 (configuration not stated) |  | 0.819
9 | COc1ccc(C(=O)NC(C)c2ccc(Cl)cc2)cc1OC1CCN(C(C)=O)CC1 (configuration not stated) | 1.1 | 
10 | CCC1CN(CCC(=O)NCCC2COc3ccccc3O2)Cc2cc(OC)ccc2O1 (configuration not stated) |  | 0.802
11 | CSc1ccccc1C(=O)NCc1c(C)ncc2c1CCN(C(=O)c1ccccc1-n1cccn1)C2 |  | 0.783
12 | CC(=O)N1CCCN(C(=O)c2cc(Cn3c(C)nc4ccccc43)[nH]n2)CC1 | 0.956 | 
13 | Cc1c(-c2ccccc2F)[nH]c2ccc(CNC(=O)C3CCC(=O)N3)cc12 (configuration not stated) | 0.768 | 
14 | COc1cccc(-c2nc3ccc(C(=O)NC(C)c4cn(C)nc4C)cc3o2)c1 (configuration not stated) | 0.873 | 
15 | O=C(c1ccc(N2CCC(NCC3(N4CCOCC4)CCCCC3)CC2)cc1)N1CCCC(O)C1 (configuration not stated) |  | 0.727
16 | c1ccc(Cc2noc(-c3ccc(N4CCN(CC5CC5)CC4)nc3)n2)cc1 |  | 0.849

Shown tab-delimited: entries from further up
Row	Compound	bacterial growth OD600 (polymyxin B 1 µg/mL)	bacterial growth OD600 (polymyxin B 0.75 µg/mL)
6	Cc1cc(CNCC2(O)CCCN(Cc3ccc(F)c(F)c3)C2=O)no1 (configuration not stated)	1	
7	Cc1ccccc1C(CC(=O)NCc1ccccn1)c1ccccc1 (configuration not stated)	0.743	

More entries follow:

Row | Compound | bacterial growth OD600 (polymyxin B 1 µg/mL) | bacterial growth OD600 (polymyxin B 0.75 µg/mL)
17 | COc1cccc(CCC(=O)N2CCCC(Nc3ccc(F)cc3)C2)c1 (configuration not stated) | 1.25 | 
18 | CC1(C2CCN(C(=O)Cc3ccc(Cl)cc3)CC2)NC(=O)N(C2Cc3ccccc3C2)C1=O (configuration not stated) |  | 0.003
19 | CSCCC(=O)N1CCCC(C(=O)Nc2ccc(-c3cccc(F)c3)cc2)C1 (configuration not stated) | 0.74 | 
20 | COC(c1ccc2c(c1)CN(C(=O)c1csnn1)CCO2)C1CCCCC1 (configuration not stated) |  | 0.054
21 | O=C(Nc1ccc(-c2ccco2)cc1)C1CCCN(Cc2ccc3nonc3c2)C1 (configuration not stated) |  | 0.375
22 | CSCc1ccc(C(=O)N2CCOC(CCc3ccccc3)C2)o1 (configuration not stated) |  | 0.543
23 | Cc1cccnc1-c1cccc2c1OC(CNC(=O)C(C)(C)C)C2 (configuration not stated) |  | 0.835
24 | CCCn1cc(CN2CCc3onc(-c4cccc(F)c4)c3C2)c(C)n1 |  | 0.93
25 | COc1ccc(CC2CN(C(=O)CCSC)CCO2)cc1 (configuration not stated) |  | 0.712
26 | COc1cccc(CN2CCCC3(CCN(S(=O)(=O)N(C)C)C3)C2=O)c1 (configuration not stated) | 0.896 | 
27 | C=C(C)CNC(=O)C1CCC(=O)N(CCc2cccc(F)c2)C1 (configuration not stated) | 0.876 | 
28 | O=C(NCCN1CCOCC1)c1ccc(N2CCC(NCCOc3cccnc3)CC2)cc1 |  | 0.845
29 | Cc1cccc(C2CCCN(C(=O)CC3(c4cccc(C(F)(F)F)c4)CC(=O)N(C4CC4)C3=O)C2)c1 (configuration not stated) |  | 0.057
30 | CN(CCc1cnn(C)c1)C(=O)c1cc(Cn2ccc3ccccc32)[nH]n1 | 0.908 | 
31 | Cc1nonc1C(=O)N1CCCC(C(=O)c2ccc(Oc3ccccc3)cc2)C1 (configuration not stated) | 0.658 | 
32 | CCOC(=O)N1CCN(Cc2ccc3c(c2)CN(C(=O)CCc2cnn(C)c2)CCO3)CC1 |  | 0.869
